Laboratory results as given in the supplement of paper PMC7666118.
The other results are listed elsewhere or left out.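 Rule for the calls: active = dose-dependent thermal stabilisation significant by F-test of dose-response against flat model at 10% FDR; inactive = not significant.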

The chains behind the UniProt entries cited, without tags or fusion partners. Where a name states a change or a piece, a line headed by the entry shows the natural chain unless it says otherwise.
UniProt Q96A19: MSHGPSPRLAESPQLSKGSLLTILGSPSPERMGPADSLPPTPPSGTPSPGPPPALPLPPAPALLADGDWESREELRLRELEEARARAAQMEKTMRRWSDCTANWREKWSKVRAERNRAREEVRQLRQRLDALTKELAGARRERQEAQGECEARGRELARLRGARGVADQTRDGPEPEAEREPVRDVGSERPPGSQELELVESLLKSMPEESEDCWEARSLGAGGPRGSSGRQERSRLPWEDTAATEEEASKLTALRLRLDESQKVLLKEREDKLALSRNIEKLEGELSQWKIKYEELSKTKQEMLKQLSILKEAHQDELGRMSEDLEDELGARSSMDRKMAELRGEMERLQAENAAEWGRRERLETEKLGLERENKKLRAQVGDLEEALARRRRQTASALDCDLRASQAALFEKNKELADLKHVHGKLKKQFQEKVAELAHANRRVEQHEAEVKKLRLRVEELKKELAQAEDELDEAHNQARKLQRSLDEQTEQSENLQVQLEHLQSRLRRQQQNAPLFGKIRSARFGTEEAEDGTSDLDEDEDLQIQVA
UniProt P30622: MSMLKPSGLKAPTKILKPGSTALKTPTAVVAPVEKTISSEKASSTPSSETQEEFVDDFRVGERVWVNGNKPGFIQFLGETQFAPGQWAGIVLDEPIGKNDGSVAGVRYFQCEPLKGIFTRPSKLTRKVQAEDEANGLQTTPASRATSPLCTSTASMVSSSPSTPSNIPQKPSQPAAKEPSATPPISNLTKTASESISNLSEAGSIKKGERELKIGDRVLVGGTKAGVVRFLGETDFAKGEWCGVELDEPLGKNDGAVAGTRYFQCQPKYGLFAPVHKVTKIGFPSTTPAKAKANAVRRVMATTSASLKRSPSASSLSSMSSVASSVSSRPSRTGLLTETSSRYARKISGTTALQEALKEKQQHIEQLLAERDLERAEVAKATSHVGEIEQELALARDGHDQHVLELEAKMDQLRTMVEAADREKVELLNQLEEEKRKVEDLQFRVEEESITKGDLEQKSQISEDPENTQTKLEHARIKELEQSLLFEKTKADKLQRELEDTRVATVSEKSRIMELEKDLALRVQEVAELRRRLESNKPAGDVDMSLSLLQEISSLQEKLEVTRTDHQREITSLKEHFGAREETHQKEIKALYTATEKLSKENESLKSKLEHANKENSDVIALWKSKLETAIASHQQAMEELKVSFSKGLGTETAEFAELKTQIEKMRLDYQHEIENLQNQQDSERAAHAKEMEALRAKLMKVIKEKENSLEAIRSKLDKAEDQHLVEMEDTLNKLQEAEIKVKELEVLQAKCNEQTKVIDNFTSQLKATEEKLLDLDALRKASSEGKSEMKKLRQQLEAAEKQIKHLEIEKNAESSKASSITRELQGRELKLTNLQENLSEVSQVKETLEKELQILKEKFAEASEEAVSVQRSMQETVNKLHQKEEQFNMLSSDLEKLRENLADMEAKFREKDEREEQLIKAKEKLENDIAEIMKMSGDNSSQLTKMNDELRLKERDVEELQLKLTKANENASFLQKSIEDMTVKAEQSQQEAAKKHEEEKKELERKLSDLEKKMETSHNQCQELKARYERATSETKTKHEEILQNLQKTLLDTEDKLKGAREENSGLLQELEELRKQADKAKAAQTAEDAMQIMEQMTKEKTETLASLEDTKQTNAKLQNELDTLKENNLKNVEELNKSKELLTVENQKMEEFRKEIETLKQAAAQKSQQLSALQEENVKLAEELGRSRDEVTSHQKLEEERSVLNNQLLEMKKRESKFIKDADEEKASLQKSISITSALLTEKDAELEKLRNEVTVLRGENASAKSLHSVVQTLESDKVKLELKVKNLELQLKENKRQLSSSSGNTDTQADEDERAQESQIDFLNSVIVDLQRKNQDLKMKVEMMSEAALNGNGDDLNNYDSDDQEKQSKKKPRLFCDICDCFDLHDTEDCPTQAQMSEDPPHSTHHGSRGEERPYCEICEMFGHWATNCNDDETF
UniProt Q8IWD4: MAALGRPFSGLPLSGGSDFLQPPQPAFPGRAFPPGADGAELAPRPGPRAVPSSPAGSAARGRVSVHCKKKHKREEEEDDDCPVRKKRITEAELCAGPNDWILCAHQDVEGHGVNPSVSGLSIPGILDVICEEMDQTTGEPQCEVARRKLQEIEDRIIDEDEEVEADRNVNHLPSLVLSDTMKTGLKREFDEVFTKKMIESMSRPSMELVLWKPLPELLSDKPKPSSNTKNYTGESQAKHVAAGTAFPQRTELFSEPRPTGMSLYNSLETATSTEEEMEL
UniProt Q5SW79: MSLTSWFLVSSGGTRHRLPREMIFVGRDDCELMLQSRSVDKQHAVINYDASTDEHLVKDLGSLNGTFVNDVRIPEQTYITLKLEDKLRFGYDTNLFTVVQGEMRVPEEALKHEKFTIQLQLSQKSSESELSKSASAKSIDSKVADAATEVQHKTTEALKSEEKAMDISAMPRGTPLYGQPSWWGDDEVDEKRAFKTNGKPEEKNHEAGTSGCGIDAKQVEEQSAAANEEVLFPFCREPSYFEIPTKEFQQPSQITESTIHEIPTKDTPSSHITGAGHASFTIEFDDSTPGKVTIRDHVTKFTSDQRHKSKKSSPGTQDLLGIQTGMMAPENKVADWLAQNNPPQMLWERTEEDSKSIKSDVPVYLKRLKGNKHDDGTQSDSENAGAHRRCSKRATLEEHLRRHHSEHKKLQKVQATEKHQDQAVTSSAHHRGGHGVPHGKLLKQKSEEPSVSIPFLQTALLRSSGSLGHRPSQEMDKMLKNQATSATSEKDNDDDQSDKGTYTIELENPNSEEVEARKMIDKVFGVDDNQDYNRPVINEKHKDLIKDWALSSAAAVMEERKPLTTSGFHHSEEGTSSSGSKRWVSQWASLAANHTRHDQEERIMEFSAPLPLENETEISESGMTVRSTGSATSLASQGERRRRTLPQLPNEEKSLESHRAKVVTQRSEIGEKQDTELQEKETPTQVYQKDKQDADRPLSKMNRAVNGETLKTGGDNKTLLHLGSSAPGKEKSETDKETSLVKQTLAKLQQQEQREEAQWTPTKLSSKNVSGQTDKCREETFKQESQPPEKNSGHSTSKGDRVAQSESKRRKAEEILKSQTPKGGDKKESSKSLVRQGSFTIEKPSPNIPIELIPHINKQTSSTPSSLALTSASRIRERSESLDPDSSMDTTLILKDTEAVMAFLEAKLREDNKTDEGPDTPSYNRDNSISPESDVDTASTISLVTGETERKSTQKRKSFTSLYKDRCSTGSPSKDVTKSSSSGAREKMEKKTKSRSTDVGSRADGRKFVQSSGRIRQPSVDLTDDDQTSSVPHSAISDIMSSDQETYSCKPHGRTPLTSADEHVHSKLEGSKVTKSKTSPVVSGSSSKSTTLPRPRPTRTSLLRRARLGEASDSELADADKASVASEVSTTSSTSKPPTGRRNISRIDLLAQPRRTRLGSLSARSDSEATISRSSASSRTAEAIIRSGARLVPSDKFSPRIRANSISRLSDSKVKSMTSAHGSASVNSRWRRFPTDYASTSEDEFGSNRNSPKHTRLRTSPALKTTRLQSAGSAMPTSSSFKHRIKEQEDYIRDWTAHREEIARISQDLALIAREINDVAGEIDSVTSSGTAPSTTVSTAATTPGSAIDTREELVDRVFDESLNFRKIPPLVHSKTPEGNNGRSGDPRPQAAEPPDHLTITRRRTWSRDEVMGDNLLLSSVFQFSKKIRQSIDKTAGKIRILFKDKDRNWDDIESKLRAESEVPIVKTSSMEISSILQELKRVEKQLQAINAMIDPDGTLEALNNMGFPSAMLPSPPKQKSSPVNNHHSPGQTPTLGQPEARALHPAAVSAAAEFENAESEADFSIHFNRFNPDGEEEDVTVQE
UniProt Q5TA50: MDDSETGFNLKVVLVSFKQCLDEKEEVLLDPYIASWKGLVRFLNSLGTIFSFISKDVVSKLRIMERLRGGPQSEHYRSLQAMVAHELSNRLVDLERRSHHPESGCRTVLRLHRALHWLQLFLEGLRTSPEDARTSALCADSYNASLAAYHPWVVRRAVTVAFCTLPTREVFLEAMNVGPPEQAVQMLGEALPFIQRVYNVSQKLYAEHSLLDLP
UniProt Q14008: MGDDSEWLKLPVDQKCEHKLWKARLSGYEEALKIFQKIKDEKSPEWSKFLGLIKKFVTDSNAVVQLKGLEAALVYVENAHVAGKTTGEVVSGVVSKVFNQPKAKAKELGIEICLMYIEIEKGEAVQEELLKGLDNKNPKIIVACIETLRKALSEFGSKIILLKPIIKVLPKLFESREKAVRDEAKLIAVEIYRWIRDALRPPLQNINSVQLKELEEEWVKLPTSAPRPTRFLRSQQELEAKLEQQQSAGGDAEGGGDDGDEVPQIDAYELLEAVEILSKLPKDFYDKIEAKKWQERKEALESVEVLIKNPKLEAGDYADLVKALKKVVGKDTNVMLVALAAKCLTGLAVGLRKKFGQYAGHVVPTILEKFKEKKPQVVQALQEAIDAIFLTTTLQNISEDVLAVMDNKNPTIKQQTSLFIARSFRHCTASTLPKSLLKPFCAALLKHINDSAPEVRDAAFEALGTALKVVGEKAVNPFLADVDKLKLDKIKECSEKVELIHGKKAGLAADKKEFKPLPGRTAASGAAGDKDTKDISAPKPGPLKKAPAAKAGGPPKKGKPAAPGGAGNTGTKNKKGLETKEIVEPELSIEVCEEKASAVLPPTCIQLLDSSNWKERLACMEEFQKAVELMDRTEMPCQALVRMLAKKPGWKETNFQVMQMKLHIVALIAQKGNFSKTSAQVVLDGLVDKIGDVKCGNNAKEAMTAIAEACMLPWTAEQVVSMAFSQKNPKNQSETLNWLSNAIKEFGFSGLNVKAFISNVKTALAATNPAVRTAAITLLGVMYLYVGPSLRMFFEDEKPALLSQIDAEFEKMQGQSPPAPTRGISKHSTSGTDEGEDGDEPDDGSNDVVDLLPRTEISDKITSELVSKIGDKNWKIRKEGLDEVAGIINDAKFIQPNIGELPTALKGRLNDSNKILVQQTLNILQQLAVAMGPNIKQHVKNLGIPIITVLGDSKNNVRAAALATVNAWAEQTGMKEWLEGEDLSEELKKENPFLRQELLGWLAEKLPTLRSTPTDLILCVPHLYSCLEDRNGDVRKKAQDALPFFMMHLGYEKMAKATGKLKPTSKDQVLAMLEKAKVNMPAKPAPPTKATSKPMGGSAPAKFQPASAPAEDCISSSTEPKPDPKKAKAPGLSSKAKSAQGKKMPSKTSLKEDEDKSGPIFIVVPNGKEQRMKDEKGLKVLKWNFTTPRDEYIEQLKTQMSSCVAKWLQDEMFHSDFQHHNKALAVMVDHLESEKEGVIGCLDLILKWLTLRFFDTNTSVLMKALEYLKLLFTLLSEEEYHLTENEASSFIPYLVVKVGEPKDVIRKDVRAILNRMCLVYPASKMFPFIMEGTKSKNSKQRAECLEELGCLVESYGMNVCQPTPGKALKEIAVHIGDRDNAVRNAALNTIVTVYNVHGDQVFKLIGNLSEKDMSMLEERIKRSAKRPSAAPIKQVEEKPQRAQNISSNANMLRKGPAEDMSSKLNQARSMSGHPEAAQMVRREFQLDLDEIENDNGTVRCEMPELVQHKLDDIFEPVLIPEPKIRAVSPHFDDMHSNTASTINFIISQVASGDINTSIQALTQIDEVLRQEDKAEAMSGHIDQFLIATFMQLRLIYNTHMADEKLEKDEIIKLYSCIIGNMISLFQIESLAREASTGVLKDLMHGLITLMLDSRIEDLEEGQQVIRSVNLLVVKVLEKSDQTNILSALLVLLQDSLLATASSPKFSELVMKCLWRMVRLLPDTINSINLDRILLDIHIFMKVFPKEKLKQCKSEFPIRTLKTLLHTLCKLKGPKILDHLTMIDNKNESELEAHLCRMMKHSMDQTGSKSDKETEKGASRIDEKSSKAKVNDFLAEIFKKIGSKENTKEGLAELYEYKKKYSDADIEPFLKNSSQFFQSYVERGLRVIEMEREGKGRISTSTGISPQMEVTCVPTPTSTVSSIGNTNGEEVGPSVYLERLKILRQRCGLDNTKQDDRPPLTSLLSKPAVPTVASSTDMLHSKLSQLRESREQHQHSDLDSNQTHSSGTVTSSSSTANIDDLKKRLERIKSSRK
UniProt Q14011: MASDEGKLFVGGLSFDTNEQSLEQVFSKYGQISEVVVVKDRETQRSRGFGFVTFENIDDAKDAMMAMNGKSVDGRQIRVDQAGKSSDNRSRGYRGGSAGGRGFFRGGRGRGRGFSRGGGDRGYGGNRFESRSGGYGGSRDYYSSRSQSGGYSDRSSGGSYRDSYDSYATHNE

compound: Nc1nc2c(ncn2[C@@H]2O[C@H](COP(=O)(O)OP(=O)(O)OP(=O)(O)O)[C@@H](O)[C@H]2O)c(=O)[nH]1; experiment: dose-dependent thermal stabilisation call (2D-TPP, DLPTP, 10% FDR) (binary (1 = stabilised)); higher = stabilised by the compound; conditions: system: Jurkat gel-filtered lysate; concentration range 1-500 µM

Target | dose-dependent thermal stabilisation call
CCDC102A (UniProt Q96A19) | inactive: 0
CHTF8 (UniProt P0CG12) | inactive: 0
CLIP1 (UniProt P30622) | inactive: 0
CCDC117 (UniProt Q8IWD4) | active: 1
CEP170 (UniProt Q5SW79) | inactive: 0
CPTP (UniProt Q5TA50) | active: 1
CKAP5 (UniProt Q14008) | inactive: 0
CIRBP (UniProt Q14011) | inactive: 0
CORO7 (UniProt P57737) | active: 1
